Assay results from the supplement of paper PMC8612539.
Converted amounts (≈) assume the structure as drawn. This continues a long series; more values of the same kind are listed elsewhere.

Test system: Escherichia coli
Assay: minimum inhibitory concentration (MIC)
Experimental: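 Broth microdilution MIC (Sensititre BOPO7F bovine plate, CLSI methods) of 19 antimicrobials against field isolates of P. multocida, M. haemolytica, H. somni (deep nasopharyngeal swabs) and E. coli, Enterococcus spp. (rectal swabs) from weaned dairy heifers. Incubation 16-24 h at 35 C. MIC is the lowest concentration preventing visible growth. Values with <= or > lie at the tested range limits. Trimethoprim-sulfamethoxazole is given as the trimethoprim component of a 1:19 mixture.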

CCN1CCN(c2cc3c(cc2F)c(=O)c(C(=O)O)cn3C2CC2)CC1 [Enrofloxacin]
Details	minimum inhibitory concentration [mg/L]
isolate (source animal id): 1	≤ 0.12
isolate (source animal id): 2	≤ 0.12
isolate (source animal id): 3	≤ 0.12
isolate (source animal id): 4	≤ 0.12
isolate (source animal id): 5	≤ 0.12
isolate (source animal id): 6	≤ 0.12
isolate (source animal id): 7	≤ 0.12
isolate (source animal id): 17	0.5 (≈ 1.39 µM)
isolate (source animal id): 18	≤ 0.12
isolate (source animal id): 19	≤ 0.12
isolate (source animal id): 20	≤ 0.12
isolate (source animal id): 21	≤ 0.12
isolate (source animal id): 22	≤ 0.12
isolate (source animal id): 23	≤ 0.12
isolate (source animal id): 24	≤ 0.12
isolate (source animal id): 25	0.5 (≈ 1.39 µM)
isolate (source animal id): 26	≤ 0.12
isolate (source animal id): 27	1 (≈ 2.78 µM)
isolate (source animal id): 28	≤ 0.12
isolate (source animal id): 29	0.5 (≈ 1.39 µM)
isolate (source animal id): 30	≤ 0.12
isolate (source animal id): 31	≤ 0.12
isolate (source animal id): 32	> 2
isolate (source animal id): 33	> 2
isolate (source animal id): 34	≤ 0.12
isolate (source animal id): 35	> 2
isolate (source animal id): 36	≤ 0.12
isolate (source animal id): 37	≤ 0.12
isolate (source animal id): 38	0.5 (≈ 1.39 µM)
isolate (source animal id): 39	> 2
isolate (source animal id): 40	≤ 0.12
isolate (source animal id): 41	≤ 0.12
isolate (source animal id): 42	≤ 0.12
isolate (source animal id): 43	> 2
isolate (source animal id): 44	≤ 0.12
isolate (source animal id): 45	≤ 0.12
isolate (source animal id): 46	≤ 0.12
isolate (source animal id): 47	≤ 0.12
isolate (source animal id): 48	≤ 0.12
isolate (source animal id): 49	≤ 0.12
isolate (source animal id): 50	≤ 0.12
isolate (source animal id): 51	0.25 (≈ 0.696 µM)
isolate (source animal id): 52	≤ 0.12
isolate (source animal id): 53	≤ 0.12
isolate (source animal id): 54	≤ 0.12
isolate (source animal id): 55	≤ 0.12
isolate (source animal id): 56	≤ 0.12
isolate (source animal id): 57	> 2
isolate (source animal id): 58	≤ 0.12
isolate (source animal id): 59	0.5 (≈ 1.39 µM)
isolate (source animal id): 60	≤ 0.12
isolate (source animal id): 61	0.25 (≈ 0.696 µM)
isolate (source animal id): 62	≤ 0.12
isolate (source animal id): 63	≤ 0.12
isolate (source animal id): 64	≤ 0.12
isolate (source animal id): 65	> 2
isolate (source animal id): 66	≤ 0.12
isolate (source animal id): 67	1 (≈ 2.78 µM)
isolate (source animal id): 68	≤ 0.12
isolate (source animal id): 69	≤ 0.12
isolate (source animal id): 70	≤ 0.12
isolate (source animal id): 71	≤ 0.12
isolate (source animal id): 72	≤ 0.12
isolate (source animal id): 73	≤ 0.12
isolate (source animal id): 74	≤ 0.12
isolate (source animal id): 75	≤ 0.12
isolate (source animal id): 76	≤ 0.12
isolate (source animal id): 77	≤ 0.12
isolate (source animal id): 78	≤ 0.12
isolate (source animal id): 79	≤ 0.12
isolate (source animal id): 80	≤ 0.12
isolate (source animal id): 81	≤ 0.12
isolate (source animal id): 82	≤ 0.12
isolate (source animal id): 83	≤ 0.12
isolate (source animal id): 84	≤ 0.12
isolate (source animal id): 85	≤ 0.12
isolate (source animal id): 86	> 2
isolate (source animal id): 87	≤ 0.12
isolate (source animal id): 88	≤ 0.12
isolate (source animal id): 89	≤ 0.12
isolate (source animal id): 90	≤ 0.12
isolate (source animal id): 91	≤ 0.12
isolate (source animal id): 92	1 (≈ 2.78 µM)
isolate (source animal id): 93	1 (≈ 2.78 µM)
isolate (source animal id): 94	> 2
isolate (source animal id): 95	1 (≈ 2.78 µM)
isolate (source animal id): 96	≤ 0.12
isolate (source animal id): 97	≤ 0.12
isolate (source animal id): 189	1 (≈ 2.78 µM)
isolate (source animal id): 190	≤ 0.12
isolate (source animal id): 191	≤ 0.12
isolate (source animal id): 192	≤ 0.12
isolate (source animal id): 193	≤ 0.12
isolate (source animal id): 194	≤ 0.12
isolate (source animal id): 195	≤ 0.12
isolate (source animal id): 196	≤ 0.12
isolate (source animal id): 197	≤ 0.12
isolate (source animal id): 198	0.25 (≈ 0.696 µM)
isolate (source animal id): 199	0.5 (≈ 1.39 µM)
isolate (source animal id): 200	0.25 (≈ 0.696 µM)
isolate (source animal id): 201	≤ 0.12
isolate (source animal id): 202	≤ 0.12
isolate (source animal id): 203	≤ 0.12
isolate (source animal id): 204	≤ 0.12
isolate (source animal id): 205	≤ 0.12
isolate (source animal id): 206	≤ 0.12
isolate (source animal id): 207	≤ 0.12
isolate (source animal id): 208	≤ 0.12
isolate (source animal id): 209	≤ 0.12
isolate (source animal id): 210	≤ 0.12
isolate (source animal id): 211	≤ 0.12
isolate (source animal id): 212	1 (≈ 2.78 µM)
isolate (source animal id): 213	≤ 0.12
isolate (source animal id): 214	≤ 0.12
isolate (source animal id): 215	≤ 0.12
isolate (source animal id): 216	≤ 0.12
isolate (source animal id): 217	≤ 0.12
isolate (source animal id): 218	≤ 0.12
isolate (source animal id): 219	0.25 (≈ 0.696 µM)
isolate (source animal id): 220	≤ 0.12
